Data taken from PubChem BioAssay AID720551 (National Center for Advancing Translational Sciences (NCATS), 2013).
The campaign covered roughly 340,000 compounds. About 1,300 (0.38%) were called active. The shares of active, inactive and inconclusive entries below differ from those in the screen.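 Rule for the calls: active = maximum activity change below -70%; inconclusive = maximum activity change between -70% and -50%; inactive = maximum activity change above -50%.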

By UniProt entry, the sequences of proteins in these tests, tags left out.
UniProt Q12809, whole entry, looked up: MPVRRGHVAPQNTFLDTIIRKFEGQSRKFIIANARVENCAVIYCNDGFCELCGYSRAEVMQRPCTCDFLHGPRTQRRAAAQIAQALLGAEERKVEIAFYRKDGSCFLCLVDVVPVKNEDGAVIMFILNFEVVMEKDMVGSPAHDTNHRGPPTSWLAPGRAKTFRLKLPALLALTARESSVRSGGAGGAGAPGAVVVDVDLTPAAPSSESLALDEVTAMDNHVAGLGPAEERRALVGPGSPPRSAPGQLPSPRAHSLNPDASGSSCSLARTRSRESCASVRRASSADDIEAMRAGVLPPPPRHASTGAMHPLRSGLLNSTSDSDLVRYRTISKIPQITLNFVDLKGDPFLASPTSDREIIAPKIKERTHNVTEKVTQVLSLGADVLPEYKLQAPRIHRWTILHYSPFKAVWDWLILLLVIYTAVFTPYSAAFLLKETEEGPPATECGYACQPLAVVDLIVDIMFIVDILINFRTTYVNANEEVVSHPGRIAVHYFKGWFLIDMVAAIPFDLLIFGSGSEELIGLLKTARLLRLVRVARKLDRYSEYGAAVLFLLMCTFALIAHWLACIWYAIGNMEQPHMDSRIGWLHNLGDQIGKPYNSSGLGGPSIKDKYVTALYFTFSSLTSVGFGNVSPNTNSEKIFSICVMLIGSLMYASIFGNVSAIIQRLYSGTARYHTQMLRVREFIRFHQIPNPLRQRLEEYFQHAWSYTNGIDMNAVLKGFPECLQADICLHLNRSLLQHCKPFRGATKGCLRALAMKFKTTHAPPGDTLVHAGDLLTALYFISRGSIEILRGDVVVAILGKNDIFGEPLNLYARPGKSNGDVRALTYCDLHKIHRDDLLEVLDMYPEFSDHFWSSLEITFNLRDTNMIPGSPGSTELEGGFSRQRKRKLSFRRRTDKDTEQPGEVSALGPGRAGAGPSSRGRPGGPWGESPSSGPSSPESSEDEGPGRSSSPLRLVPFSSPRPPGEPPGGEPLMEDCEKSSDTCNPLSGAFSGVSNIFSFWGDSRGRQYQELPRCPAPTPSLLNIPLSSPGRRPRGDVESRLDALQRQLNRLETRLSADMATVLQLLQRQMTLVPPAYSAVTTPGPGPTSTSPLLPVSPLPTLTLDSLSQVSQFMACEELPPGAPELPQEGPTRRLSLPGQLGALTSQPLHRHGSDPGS

Target: Voltage-gated inwardly rectifying potassium channel KCNH2 (Homo sapiens) (UniProt Q12809)
Test: qHTS for Inhibitors of KCHN2 3.1: Wildtype qHTS
Conditions: U2OS, BacMam KCNH2, thallium flux FluxOr; at 1.84 µM, active compounds read low
Method in brief: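 U2OS cells transduced with wild-type KCNH2 virus are loaded with FluxOr dye for 45 min, and thallium flux is measured in kinetic reads before and after stimulation buffer. Rate constants are normalized to DMSO controls.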
% is set by controls: 0 for no effect and ±100 for the full control effect.

Row | SMILES | activity change
1 | CCOC(=O)N1CCN(C2CCCN(C(=O)c3cccc(Cl)c3)C2)CC1 (stereo not given) | inactive: 11.6%
2 | CCOc1ccccc1NC(=O)CSc1ccc2nnc(-c3cccnc3)n2n1 | inactive: 18.9%
3 | Cc1cccc(-c2ccc3[nH]c4c(c3c2)CCN2C[C@@H]([C@H](C)O)[C@@H](N(C)C(=O)NC3CCCCC3)C[C@@H]42)c1 | inconclusive: -59.6%
4 | CCOC(=O)C1(CCOc2ccccc2)CCN(Cc2ccc(O)c(OC)c2)CC1 | inconclusive: -67.5%
5 | Cc1sc2nc(COC(=O)c3cccc(OC(F)F)c3)[nH]c(=O)c2c1C | active: -91.7%
6 | CSc1nc2ccc(S(=O)(=O)N3CCCCC3)cc2s1 | inactive: -13.2%
7 | COC(=O)c1c(NC(=O)/C=C/c2ccc3c(c2)OCO3)sc(C)c1C | active: -72%
8 | Cc1ccc2nc(-c3ccc(NC(=O)COC(=O)c4ccc(Br)o4)cc3)sc2c1 | inactive: -1.71%
9 | N#Cc1ccccc1OCCCN1CCC(Cc2ccccc2)CC1 | active: -89.6%
10 | COCCNC(=O)c1ccc2c(c1)ncn2-c1ccc(C)c(Cl)c1 | inconclusive: -57.7%
11 | COc1ccc2cc(CO)n(C)c2c1 | inconclusive: -59.5%
12 | CC(CCN1CCC(n2nccc2NC(=O)c2ccccc2Cl)CC1)c1ccccc1 (stereo not given) | inconclusive: -65.2%
13 | COc1cccc(C(=O)NCCCN2CCN(CCCNC(=O)c3cccc(OC)c3)CC2)c1 | inconclusive: -67%
14 | COc1cccc(C(=O)NCc2nnc(SCC(=O)Nc3nccs3)n2-c2ccccc2)c1 | inactive: 1.77%
15 | O=C(COC(=O)CNC(=O)c1ccc(Cl)cc1Cl)NNC(=O)c1ccccc1 | inconclusive: -65.1%
16 | Cc1cc(C)c(O)c(-c2n[nH]c3c2C(c2cccc(O)c2)N(Cc2ccco2)C3=O)c1 (stereo not given) | active: -91.1%
17 | COc1ccc(/C=N/Nc2cc(=O)n(C)c(=O)n2C)cc1OC | inactive: -4.96%
18 | O=C(NCc1ccco1)/C(=C/c1ccccc1)NC(=O)c1ccco1 | active: -92%
19 | CSc1ccc2c(c1)C(N1CCN(C)CC1)Cc1ccc(F)cc1S2 (stereo not given) | inconclusive: -53.1%
20 | Cc1nc2c(-c3ccc(F)cc3)c(C)nn2c(C)c1CCC(=O)Nc1ccccc1F | inconclusive: -52.8%
21 | COc1ccc(CCn2c(=N)c(C(=O)NC3CCCCC3)cc3c(=O)n4ccccc4nc32)cc1 | inconclusive: -64.6%
22 | CCCCCC(O)(CCN1CCCCC1)c1ccccc1 (stereo not given) | inconclusive: -61.2%
23 | CCCOc1ccc(C(=O)NNC(=S)NC(=O)c2ccccc2)cc1 | inconclusive: -65%
24 | Cc1cc(N2CCN(Cc3ccc4c(c3)OCO4)CC2)n2ncnc2n1 | inconclusive: -63.1%
25 | O=C1Nc2ccccc2/C1=C/c1ccc([N+](=O)[O-])cc1 | inactive: 19.1%
26 | O=S(=O)(c1ccc(Cl)cc1)N1CCCC(c2nc(-c3ccc(F)cc3)no2)C1 (stereo not given) | inactive: 5.66%
27 | COc1cccc(NC(=O)c2ccc(CN3CCN(c4ccccc4)CC3)cc2)c1 | inconclusive: -57.5%
28 | O=C(CSc1ccc(Cl)cc1)N1CCN(c2ccc([N+](=O)[O-])cc2Cl)CC1 | inconclusive: -51.4%

3 entries out of the list, sorted by count of non-hydrogen atoms, rising.
Row | SMILES | activity change
22 | CCCCCC(O)(CCN1CCCCC1)c1ccccc1 (stereo not given) | inconclusive: -61.2%
26 | O=S(=O)(c1ccc(Cl)cc1)N1CCCC(c2nc(-c3ccc(F)cc3)no2)C1 (stereo not given) | inactive: 5.66%
16 | Cc1cc(C)c(O)c(-c2n[nH]c3c2C(c2cccc(O)c2)N(Cc2ccco2)C3=O)c1 (stereo not given) | active: -91.1%

More entries follow.

Row | SMILES | activity change
29 | CCCCN(C)C1=CC2=CC(=C(C#N)C#N)CCC2CC1 (stereo not given) | active: -87.2%
30 | O=C(NC(=S)Nc1cc([N+](=O)[O-])ccc1Cl)c1ccccc1 | active: -168%
31 | CC(C)C[C@H]1CNC(=S)N1CC1CCN(CCCC2CCCC2)CC1 | inconclusive: -51.6%
32 | O=[N+]([O-])c1ccc(C2=NN(c3ccccc3)C(c3ccco3)C2)cc1 (stereo not given) | inconclusive: -57.7%
33 | CN1C(=O)Nc2cccc3cccc1c23 | inconclusive: -68.7%
34 | CCn1c(SCC(=O)NC2CC2)nnc1-c1ccccc1OC | inconclusive: -52.5%
35 | Cn1c(N)c(C(=O)c2cc(-c3ccccn3)nc3ccccc23)c(=O)[nH]c1=O | active: -101%
36 | O=C(Nc1ccnn1C1CCN(CCCc2ccccc2)CC1)c1ccccc1 | inconclusive: -59.1%
37 | CCc1ccc(CNC(=O)C2CCN(c3nnc(C)c4c(C)n(-c5ccc(C)cc5)nc34)CC2)cc1 | inconclusive: -64.4%
38 | CCN(CC)CC(O)CN(c1ccccc1)S(=O)(=O)c1ccc2ccccc2c1 (stereo not given) | active: -89.4%
39 | CC(=O)Nc1ccc(S(=O)(=O)N2CCN(c3nc(NC4CCCC4)c4ccccc4n3)CC2)cc1 | active: -89.7%
40 | COc1ccc(/C=C/C(=O)NC(=S)Nc2ccc(N3CCN(C(C)=O)CC3)cc2)cc1 | active: -174%
41 | CSc1ccc(/C=C2\C(=N)N3N=C(CC(=O)N4CCCCC4)SC3=NC2=O)cc1 | inconclusive: -54.2%
42 | COC(=O)c1ccc(Oc2nc(Nc3ccc(C)c(C)c3)nc(N(C)C)n2)cc1 | inconclusive: -59.5%
43 | C=CC[C@H](CC(=O)N(CCO)Cc1ccccc1)C(=O)N[C@H](COC(=O)[C@@H](CC=C)Cc1ccc(F)cc1)Cc1ccccc1 | inactive: -25%
44 | COC(=O)c1ccccc1-c1c2ccc(=N)cc-2oc2cc(N)ccc12 | active: -118%
45 | O=c1c(S(=O)(=O)c2ccc(Cl)cc2)cn(Cc2cccc(F)c2)c2ccc(F)cc12 | inconclusive: -65.9%
46 | CCOC(=O)C1(Cc2cccc(OC)c2)CCN(Cc2ccc(C)s2)CC1 | inconclusive: -65.4%
47 | COc1ccc(OC)c(C2CC(=O)N3CN(c4cccc(Cl)c4C)CSC3=C2C#N)c1 (stereo not given) | inactive: 5.58%
48 | CN1CCN(C(c2cccc(Cl)c2)c2ccccc2Cl)CC1 (stereo not given) | inconclusive: -50.8%
49 | CCOc1ccc(CN(C)CC(=O)NCc2ccccc2Cl)cc1 | active: -85%
50 | Cc1ncc(CO)c(/C=N/NC(=O)c2ccoc2C)c1O | inactive: -3.91%
51 | COC(=O)C1(C)CCCC2(C)C1CCC13OCC(CC21)C(O)(C(C)C)C3O (stereo not given) | inactive: 9.54%
52 | Fc1cc(NCc2ccccc2)nc(NCc2ccccc2)n1 | inactive: -3.03%
53 | Cc1nc(SC(C)C(=O)NCC2CCCO2)c2cc(-c3ccccc3)sc2n1 (stereo not given) | inactive: 7.85%
54 | Clc1cccc(Cl)c1Cn1nnc(N2CCCC2)n1 | active: -138%
55 | CCN1CCc2c(sc(NC(=S)NC(=O)c3ccccc3)c2C#N)C1 | inactive: 2.28%
